From PubChem BioAssay AID2685 (National Center for Advancing Translational Sciences (NCATS), 2010)
The list shows a part of the results. Further columns of the screen follow, without active or inactive calls. Most of these compounds were active or inconclusive in the main read-out, so they are no random draw. Words in brackets tell the shape of the fitted curve; partial curves, single points and poor fits give uncertain potencies. Where a SMILES comes first, the peptide text is derived from it. The star is where a group is joined. OBn = c1ccc(CO*)cc1

Assay: qHTS Assay for Lipid Storage Modulators in Drosophila S3 Cells;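 for cell number change: cells counted by Cell Tracker Red CMTPX staining in the red channel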
Conditions: BODIPY lipid droplet fluorescence, 18-24 h; for cell number change: measured here: cell count max response, cells fed with added oleic acid
Summary of the method: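 Laser-scanning cytometry quantifies lipid droplet accumulation (500–530 nm total intensity; droplet/cell object ratio) in oleic acid-fed (400 uM added) Drosophila S3 cells treated with a concentration series. 20 uM Triacsin C defined 100% inhibition.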

[1] = measured here: cell number channel AC50, cells fed with added oleic acid
[2] = measured here: lipid fluorescence (Fed channel) AC50, cells fed with added oleic acid

Row | Compound | cell number change | AC50 [1] | AC50 [2]
1 | COc1cc(NS(=O)(=O)c2ccc(NC(=O)/C(=C/c3ccccc3Cl)NC(=O)c3ccccc3)cc2)nc(OC)n1 | -33.7% | 8.2 µM [falling, partial curve, poor fit] | 8.2 µM [falling, partial curve]
2 | CC(=O)Nc1ccc(CN2CCC(n3nccc3NC(=O)CCc3ccccc3)CC2)cc1 | -3.4% | – | 1.3 µM [falling, partial curve]
3 | COc1cccc(N2CCN(C(=O)CCCCCn3c(=S)[nH]c4cc5c(cc4c3=O)OCO5)CC2)c1 | -28.3% | – | 4.61 µM [falling, partial curve]
4 | C/C(=N\NC(=O)c1ccc2c(c1)OCO2)c1ccco1 | -31.8% | 18.4 µM [falling, single point] | 29.1 µM [falling, single point]
5 | O=C(Nc1ccc(Nc2ccccc2)cc1)c1cccc(F)c1 | -42.3% | 10.3 µM [falling, partial curve, poor fit] | 29.1 µM [falling, single point]
6 | N#Cc1c(NC(=O)CSc2ncnc3c2cnn3-c2ccccc2Cl)sc2c1CCCC2 | -17.1% | – | 11.6 µM [rising, partial curve]
7 | Cc1cnnn1-c1cccc([N+](=O)[O-])c1 | -23.5% | – | –
8 | CCCCN(CC)C(=O)Cc1c(C(=O)O)[nH]c2ccc(Cl)cc12 | -13.2% | – | 23.1 µM [falling, partial curve, poor fit]
9 | Cc1ccc(C(=O)N2CCN=C2SCc2ccc([N+](=O)[O-])cc2)cc1C | 32.9% | 4.61 µM [rising, partial curve] | –
10 | O=C(CNC(=O)c1cc2c(n(-c3ccccc3)c1=O)CCCC2=O)c1ccccc1 | -34.6% | 29.1 µM [falling, single point] | 7.31 µM [falling, partial curve, poor fit]
11 | Cc1nn(C)c(C(=O)NNC(=S)NCC(C)C)c1Cl | -13.6% | – | 0.082 µM [falling, single point]
12 | N#Cc1c(N)nc(N)nc1Nc1ccc(Br)cc1 | 17.4% | – | 18.4 µM [falling, single point]
13 | C/C(=N/NC(=O)CNC(=O)COc1ccccc1)c1ccc(Cl)cc1 | -10.1% | – | 23.1 µM [falling, single point]
14 | O=C(O)c1cc(N=Cc2c(O)c3ccccc3oc2=O)ccc1O | 54.2% | 1.3 µM [rising, partial curve, poor fit] | 0.231 µM [rising, full curve]
15 | CCOC(=O)CC(=O)CSc1nnc2sc3ccccc3n12 | 27.4% | – | 1.46 µM [rising, partial curve]
16 | CCOc1ccccc1NC(=O)COC(=O)c1ccc2ccccc2n1 | – | 7.31 µM [falling, partial curve] | 0.651 µM [falling, single point]
17 | Cc1c(Cl)cccc1NC(=O)COC(=O)CN1C(=O)NC(C)(C)C1=O | 8.67% | – | 29.1 µM [rising, single point]
18 | CCC(=O)Nc1ccc(C(=O)COC(=O)Cc2ccsc2)cc1 | -29.9% | – | 0.116 µM [falling, full curve]
19 | CC(C)(C)c1ccc(-n2ncc3c2CCCC3NC(=O)CN2CCCC2=O)cc1 (configuration not stated) | -55.9% | 13 µM [falling, partial curve] | 11.6 µM [falling, single point]

Row | Compound | cell number change | AC50 [1] | AC50 [2]
20 | CCCCn1ccc(=O)c2c(C(F)(F)F)nccc21 | -7.4% | – | 0.092 µM [falling, full curve, poor fit]
21 | Nc1nnn(CC(=O)N/N=C/c2ccncc2)n1 | 32.9% | 0.058 µM [rising, full curve, poor fit] | –
22 | O=C(NCc1cccnc1)C1CCCN1S(=O)(=O)c1ccc(Cl)cc1 (configuration not stated) | -11.3% | – | –
23 | COc1cccc(CC2(CO)CCN(Cc3cnc(N4CCOCC4)s3)CC2)c1 | 23.5% | – | –
24 | Cc1cc(C)n(-c2cccc(CN3CCC(CO)(Cc4ccccc4)CC3)c2)n1 | 7.78% | – | 7.31 µM [rising, partial curve, poor fit]
25 | CCN1/C(=C/c2cccc[n+]2C)Sc2ccc(OC)cc21 | 52.8% | 18.4 µM [rising, partial curve, poor fit] | 0.58 µM [rising, single point]
26 | Cc1cc(=O)[nH]c(Nc2cccc(Br)c2)n1 | -17.6% | – | 20.6 µM [falling, single point]
27 | CC1Cc2ccccc2N1CC(=O)NC(=O)NC(C)(C)C (configuration not stated) | 8.08% | – | 6.51 µM [falling, single point]
28 | Cc1ccc(OCC(=O)N2CCN(S(=O)(=O)c3ccc(Cl)s3)CC2)cc1C | -44.7% | 5.17 µM [falling, full curve, poor fit] | –
29 | N=c1c(C(=O)NCc2ccco2)cc2c(=O)n3ccccc3nc2n1Cc1ccc(Cl)cc1 | – | – | 3.66 µM [rising, single point]
30 | O=C(Nc1ccc(S(=O)(=O)N2CCCC2)cc1)c1cccnc1 | 64.5% | 11.6 µM [rising, partial curve] | –
31 | CC(C)(C)C1(C)OC(C(=O)NC2CCCCC2)C(C(=O)NC2CCCCC2)O1 (configuration not stated) | -9.81% | – | –
32 | COc1ccc(C(=O)N2CCC(C(=O)O)CC2)cc1 | 12.7% | – | –
33 | Cc1c(Cl)cccc1Nc1nc(NCCO)c2ccccc2n1 | -30.9% | 20.6 µM [falling, single point] | 6.51 µM [rising, single point]
34 | COC(=O)[C@H](Cc1ccccc1)NC(=O)[C@@H](N)CC(=O)OCc1ccccc1 (H-Asp(OBn)-Phe-OMe) | 27.6% | – | –
35 | COc1cccc(CNc2nnnn2C)c1 | -7.43% | – | –
36 | Cc1c(C)c2c(OCC(=O)N3CCC(C(N)=O)CC3)cc3c(c2oc1=O)CCC(C)(C)O3 | 5.61% | – | 0.92 µM [falling, full curve]
37 | CCCOCCOC(=O)c1[nH]c2c(c1C)C(=O)CC(c1cc(OC)ccc1OC)C2 (configuration not stated) | -13.4% | – | 20.6 µM [falling, single point]
38 | COc1cc(CNCCCO)ccc1OCC(=O)NC(C)(C)C | -44.9% | 29.1 µM [falling, single point] | 32.6 µM [falling, single point]

Entries 15–22, reprinted for reference:
Row | Compound | cell number change | AC50 [1] | AC50 [2]
15 | CCOC(=O)CC(=O)CSc1nnc2sc3ccccc3n12 | 27.4% | – | 1.46 µM [rising, partial curve]
16 | CCOc1ccccc1NC(=O)COC(=O)c1ccc2ccccc2n1 | – | 7.31 µM [falling, partial curve] | 0.651 µM [falling, single point]
17 | Cc1c(Cl)cccc1NC(=O)COC(=O)CN1C(=O)NC(C)(C)C1=O | 8.67% | – | 29.1 µM [rising, single point]
18 | CCC(=O)Nc1ccc(C(=O)COC(=O)Cc2ccsc2)cc1 | -29.9% | – | 0.116 µM [falling, full curve]
19 | CC(C)(C)c1ccc(-n2ncc3c2CCCC3NC(=O)CN2CCCC2=O)cc1 (configuration not stated) | -55.9% | 13 µM [falling, partial curve] | 11.6 µM [falling, single point]
20 | CCCCn1ccc(=O)c2c(C(F)(F)F)nccc21 | -7.4% | – | 0.092 µM [falling, full curve, poor fit]
21 | Nc1nnn(CC(=O)N/N=C/c2ccncc2)n1 | 32.9% | 0.058 µM [rising, full curve, poor fit] | –
22 | O=C(NCc1cccnc1)C1CCCN1S(=O)(=O)c1ccc(Cl)cc1 (configuration not stated) | -11.3% | – | –
